Results published in publication PMC9733572.
These are yes or no findings as the source states them, for the method shown. In cells and extracts the contact can be indirect. Here binding means that the protein was enriched with, or labelled near, the bait; the list need not be complete.

Protein sequences, listed by entry. Tags and fused reporters are not part of them. Residues count along the entry.
UniProt Q96DU3, residues 22-332: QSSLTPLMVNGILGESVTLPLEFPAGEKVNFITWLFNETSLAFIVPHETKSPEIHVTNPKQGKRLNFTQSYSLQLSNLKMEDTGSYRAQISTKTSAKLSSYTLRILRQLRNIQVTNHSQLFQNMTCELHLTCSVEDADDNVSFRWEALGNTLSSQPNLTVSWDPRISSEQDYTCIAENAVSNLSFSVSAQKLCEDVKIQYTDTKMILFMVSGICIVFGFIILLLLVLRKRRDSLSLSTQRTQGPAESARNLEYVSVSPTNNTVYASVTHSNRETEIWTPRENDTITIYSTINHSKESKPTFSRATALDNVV
UniProt P06239: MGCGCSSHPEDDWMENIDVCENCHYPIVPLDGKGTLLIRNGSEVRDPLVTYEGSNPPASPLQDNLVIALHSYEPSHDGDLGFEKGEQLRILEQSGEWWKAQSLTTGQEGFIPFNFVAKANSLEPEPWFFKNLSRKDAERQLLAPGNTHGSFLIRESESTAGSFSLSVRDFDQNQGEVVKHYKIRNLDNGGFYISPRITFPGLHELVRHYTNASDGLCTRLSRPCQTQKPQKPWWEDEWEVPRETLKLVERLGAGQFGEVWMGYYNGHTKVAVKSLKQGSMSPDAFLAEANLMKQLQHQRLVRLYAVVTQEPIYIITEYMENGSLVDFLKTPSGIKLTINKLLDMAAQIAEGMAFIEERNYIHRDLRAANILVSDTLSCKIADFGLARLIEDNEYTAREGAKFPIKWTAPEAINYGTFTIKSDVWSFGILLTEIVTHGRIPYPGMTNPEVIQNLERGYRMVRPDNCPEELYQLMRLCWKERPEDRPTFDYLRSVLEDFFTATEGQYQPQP
UniProt P43403: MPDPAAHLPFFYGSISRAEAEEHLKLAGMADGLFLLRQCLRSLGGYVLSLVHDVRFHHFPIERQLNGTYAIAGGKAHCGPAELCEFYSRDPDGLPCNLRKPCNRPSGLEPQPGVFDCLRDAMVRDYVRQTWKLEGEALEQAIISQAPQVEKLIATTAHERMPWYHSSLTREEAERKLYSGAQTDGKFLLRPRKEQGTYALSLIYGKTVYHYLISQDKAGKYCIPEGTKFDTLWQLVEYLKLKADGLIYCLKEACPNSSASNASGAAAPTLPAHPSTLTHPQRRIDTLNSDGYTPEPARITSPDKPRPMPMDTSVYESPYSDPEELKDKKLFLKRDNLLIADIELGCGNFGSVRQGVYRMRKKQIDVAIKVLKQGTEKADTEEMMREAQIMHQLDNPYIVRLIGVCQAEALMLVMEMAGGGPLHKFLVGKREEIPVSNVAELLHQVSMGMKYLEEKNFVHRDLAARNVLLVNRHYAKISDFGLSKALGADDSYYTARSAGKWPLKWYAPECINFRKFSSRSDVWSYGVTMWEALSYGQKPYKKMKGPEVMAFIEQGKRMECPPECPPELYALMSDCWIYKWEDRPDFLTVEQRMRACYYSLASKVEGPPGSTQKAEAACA

Biological target: V5-tagged SLAMF6 (UniProt Q96DU3)
Assay: affinity purification with mass spectrometry; V5-SLAMF6 Jurkat T cells stimulated 15 min with plate-coated anti-CD3 + anti-SLAMF6 (plate) or plate-coated anti-CD3 + soluble anti-SLAMF6 (soluble); lysis in 1% NP-40, 25 mM Tris pH 8.0, 150 mM NaCl, 1 mM EDTA, 5% glycerol; anti-V5 agarose beads; gel, mass spectrometry

binding	Substance
binds	LCK (from UniProt P06239 1-509) (enzyme)
binds	ZAP70 (from UniProt P43403 1-619) (enzyme)
